Measured values from paper PMC3674269.
Results are given in words; binding and its absence hold for the method and conditions named. In cells and extracts the contact can be indirect. Binding can be weak; no strength is given.

Amino acid sequences for entries named in this document (tags omitted). A change or cut given only in a name is not applied to a line headed by its entry.
UniProt P22002: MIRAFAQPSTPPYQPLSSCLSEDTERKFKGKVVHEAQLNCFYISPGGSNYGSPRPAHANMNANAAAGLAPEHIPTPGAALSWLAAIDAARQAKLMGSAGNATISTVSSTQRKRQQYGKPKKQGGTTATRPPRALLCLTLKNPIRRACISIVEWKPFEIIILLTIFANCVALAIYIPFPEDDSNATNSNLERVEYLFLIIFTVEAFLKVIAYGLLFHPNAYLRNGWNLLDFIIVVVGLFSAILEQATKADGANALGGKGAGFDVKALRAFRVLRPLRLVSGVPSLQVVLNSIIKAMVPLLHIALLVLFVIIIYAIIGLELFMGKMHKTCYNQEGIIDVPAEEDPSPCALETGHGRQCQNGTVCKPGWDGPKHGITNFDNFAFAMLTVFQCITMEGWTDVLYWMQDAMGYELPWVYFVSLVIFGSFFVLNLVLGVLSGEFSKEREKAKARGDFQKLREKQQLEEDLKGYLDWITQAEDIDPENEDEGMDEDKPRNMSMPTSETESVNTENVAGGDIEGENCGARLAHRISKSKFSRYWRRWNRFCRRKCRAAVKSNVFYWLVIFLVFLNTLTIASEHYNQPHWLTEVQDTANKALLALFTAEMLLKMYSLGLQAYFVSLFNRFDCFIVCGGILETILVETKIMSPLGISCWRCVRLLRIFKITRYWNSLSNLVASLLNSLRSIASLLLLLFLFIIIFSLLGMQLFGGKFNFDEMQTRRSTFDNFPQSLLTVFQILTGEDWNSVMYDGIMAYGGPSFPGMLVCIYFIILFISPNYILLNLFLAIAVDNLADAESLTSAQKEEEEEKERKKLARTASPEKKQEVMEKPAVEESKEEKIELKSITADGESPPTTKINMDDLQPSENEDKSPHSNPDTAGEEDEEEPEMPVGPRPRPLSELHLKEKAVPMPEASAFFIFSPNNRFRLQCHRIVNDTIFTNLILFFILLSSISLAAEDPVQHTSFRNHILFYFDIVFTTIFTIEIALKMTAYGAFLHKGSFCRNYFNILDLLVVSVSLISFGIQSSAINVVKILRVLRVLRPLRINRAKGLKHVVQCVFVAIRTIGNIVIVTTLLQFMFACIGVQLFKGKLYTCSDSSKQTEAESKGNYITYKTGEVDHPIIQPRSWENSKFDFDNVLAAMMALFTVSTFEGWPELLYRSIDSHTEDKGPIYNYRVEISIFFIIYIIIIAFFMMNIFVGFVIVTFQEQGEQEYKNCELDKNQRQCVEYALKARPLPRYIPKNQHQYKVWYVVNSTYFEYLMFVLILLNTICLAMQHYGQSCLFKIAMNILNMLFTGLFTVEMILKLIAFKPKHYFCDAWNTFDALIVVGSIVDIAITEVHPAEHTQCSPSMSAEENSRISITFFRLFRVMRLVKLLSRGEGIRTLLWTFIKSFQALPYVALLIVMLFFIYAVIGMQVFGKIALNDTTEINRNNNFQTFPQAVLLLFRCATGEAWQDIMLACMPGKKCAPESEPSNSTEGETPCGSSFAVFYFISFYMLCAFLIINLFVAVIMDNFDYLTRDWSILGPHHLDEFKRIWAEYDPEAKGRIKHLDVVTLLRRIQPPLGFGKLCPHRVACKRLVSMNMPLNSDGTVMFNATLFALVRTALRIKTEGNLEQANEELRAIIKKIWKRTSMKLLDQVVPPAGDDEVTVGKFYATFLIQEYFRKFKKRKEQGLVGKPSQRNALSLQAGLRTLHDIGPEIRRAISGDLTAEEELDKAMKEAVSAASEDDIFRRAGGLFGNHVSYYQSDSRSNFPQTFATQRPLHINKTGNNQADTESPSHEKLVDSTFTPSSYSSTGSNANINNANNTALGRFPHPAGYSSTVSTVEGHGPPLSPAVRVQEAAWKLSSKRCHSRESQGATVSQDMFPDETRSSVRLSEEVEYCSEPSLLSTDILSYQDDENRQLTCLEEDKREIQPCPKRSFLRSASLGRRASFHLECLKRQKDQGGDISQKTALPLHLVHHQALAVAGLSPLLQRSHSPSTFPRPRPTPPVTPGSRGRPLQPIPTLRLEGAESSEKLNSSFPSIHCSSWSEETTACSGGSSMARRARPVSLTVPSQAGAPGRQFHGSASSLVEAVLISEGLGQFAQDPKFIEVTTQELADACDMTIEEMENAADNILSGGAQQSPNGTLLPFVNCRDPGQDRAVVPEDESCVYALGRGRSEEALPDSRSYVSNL
UniProt F1NZP5: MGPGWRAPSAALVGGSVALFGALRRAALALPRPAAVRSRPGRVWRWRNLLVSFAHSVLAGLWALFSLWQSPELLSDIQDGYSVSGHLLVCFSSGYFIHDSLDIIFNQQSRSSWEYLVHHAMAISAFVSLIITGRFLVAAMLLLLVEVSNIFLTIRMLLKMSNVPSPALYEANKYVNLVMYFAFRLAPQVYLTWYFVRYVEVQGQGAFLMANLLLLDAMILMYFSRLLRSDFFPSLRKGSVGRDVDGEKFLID

Molecular target: L-type calcium channel CaV1.2 α1 subunit (UniProt P22002)
Test: co-IP; HEK293 cells transfected with CaV1.2 α1, β2a-GFP, α2δ subunits, TAG and C3-myc; lysed in Hepes lysis buffer (20 mM Hepes, 137 mM NaCl, 1% Triton X-100, 10% glycerol, 1.5 mM MgCl2, 1 mM EGTA); precipitated with anti-CaV1.2 and protein A beads for 3 h, detected with anti-myc; pcDNA3 as control

Substance	binding
Calfacilitin-myc1 (from UniProt F1NZP5)	binds
Calfacilitin-myc7 (from UniProt F1NZP5)	binds
